The whole screen tested about 400,000 compounds, of which about 13,000 (3.2%) were called active. The shares of active, inactive and inconclusive entries below differ from those in the screen. Calls come from the whole dose curve; as a rule, active = well fitted cell-killing curve with a large enough effect; inconclusive = small, poorly fitted or top-dose-only effect, or effect the other way; inactive = flat fitted curve, though single readings scatter. Potencies beside an inconclusive call are fits to weak or partial responses and may not hold up.
test: qHTS assay for MDR1-selective chemotherapeutics: Primary screen using the drug-selected MDR subline cells KB-V1; details: KB-V1 MDR cells viability, CellTiter-Glo, 72 h; activity change, negative = cytotoxicity: at 46.1 µM (top of the series); note: nearly all actives have a fitted effect of over 60% in size
Method in brief: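 Cytotoxicity toward P-gp-expressing KB-V1 cells was determined as loss of CellTiter-Glo luminescence after 72 h at 37 degrees C. Compounds were tested in quantitative HTS format across a concentration range, with curves fitted to normalized data.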
% is set by controls: 0 for no effect and ±100 for the full control effect; potency is the fitted concentration of half-maximal effect.

SMILES	Potency	activity change, negative = cytotoxicity
O=c1[nH]c(Sc2ccc([N+](=O)[O-])cc2[N+](=O)[O-])nc2ccccc12	inconclusive: 3.66 µM [cytotoxic, single point]	–
Cc1nc2ccccn2c1C(=O)/C=C/c1cccc([N+](=O)[O-])c1	inconclusive: 2.91 µM [cytotoxic, partial curve, poor fit]	–
CC(=O)Nc1ccc(-c2ccnc3c2CC(C(=O)Nc2ccccc2)O3)cc1 (stereo not given)	inconclusive: 16.4 µM [cytotoxic, partial curve]	–
Cc1ncc([N+](=O)[O-])n1CC(=O)Nc1ccc(Cl)cc1	inactive	–
O=C(O)c1ccc(N/N=C/c2ccc3nccnc3c2)cc1	inactive	–
CC1CCN(c2ccc(C(=O)NCc3ccco3)cc2[N+](=O)[O-])CC1	inconclusive: 8.2 µM [cytotoxic, partial curve]	–
C[C@@H]1[C@H](c2ccccc2)OCCS(=O)(=O)N1Cc1ccccc1	inactive	–
C=CCn1c(SCC(C)=O)nnc1-c1cc(-c2ccccc2)sc1N	active: 18.4 µM	–
CN(CCc1ccccn1)C1CCCN(S(=O)(=O)c2ccc(F)c(Cl)c2)C1 (stereo not given)	inconclusive: 1.3 µM [cytotoxic, full curve]	–
COC(=O)C1=C(C)N(Cc2ccc(C)cc2)C(=O)/C1=C\c1cc(OC)c(OC)c(OC)c1	inconclusive: 29.1 µM [cytotoxic, single point]	–
Cc1cc(O)cc(O)c1C(=O)Cc1cscn1	inconclusive: 10.3 µM [rising, partial curve]	–
CSc1ccc(CN(C)CC(=O)NCCc2ccccc2)cc1	inconclusive: 18.4 µM [cytotoxic, single point]	–
Cc1ccc(-c2nc3ccc(C)cn3c2Cc2ccsc2)cc1	inactive	–
CCN(CC)c1ccc(CN2CCC(C(=O)NCc3ccc(C)cc3)CC2)cc1	inconclusive: 3.26 µM [cytotoxic, partial curve, poor fit]	–
O=C(O)C1(c2ccccc2)CCN(S(=O)(=O)c2ccc(Br)cc2)CC1	inactive	–
C[n+]1c(-c2ccccc2)cc2c(=Cc3ccccc3)c3ccccc3n21	inconclusive: 18.4 µM [cytotoxic, single point]	–
COC(=O)C1=C(C)NC2=C(C(=O)CC(C)(C)C2)C1c1ccccn1 (stereo not given)	inactive	–
CC(C)(C)C1CCc2c(C(=O)N/N=C/c3cccs3)csc2C1 (stereo not given)	inconclusive: 23.1 µM [cytotoxic, single point]	–
Cc1ccc2ccc3cc(C(=O)Nc4ccc(C)c(F)c4)nc3c2[nH]1	–	inconclusive: -6.44%
CCN(CC)S(=O)(=O)c1ccc2c(c1)N(CC(=O)N1CCC(C(N)=O)CC1)C(=O)CO2	inconclusive: 18.4 µM [rising, single point]	–
Cc1cc(NS(=O)(=O)c2ccc(NC(=O)c3cccnc3)cc2)nc(C)n1	inconclusive: 13 µM [rising, single point]	–
CCOc1cc(CN2CCN(c3cccc(C(F)(F)F)c3)CC2)ccc1OC	inconclusive: 20.6 µM [cytotoxic, single point]	–
CC(=O)N1CCCC1c1nc2ccccc2n1Cc1cc(C)ccc1C (stereo not given)	inactive	–
COc1ccc(NC(=O)C2CCCN(S(=O)(=O)c3ccc4[nH]c(=O)ccc4c3)C2)cc1OC (stereo not given)	inconclusive: 5.8 µM [rising, partial curve, poor fit]	–

SMILES	Potency	activity change, negative = cytotoxicity
CCSc1nc2sc3c(c2c(=O)n1-c1ccc(C)cc1)CCN(C)C3	inconclusive: 18.4 µM [rising, partial curve]	–
CCOC(=O)N1CCC(NC(=S)Nc2ccc3nc(N4CCN(CC)CC4)cc(C)c3c2)CC1	inactive	–
Cc1coc2c(C)c3oc(=O)c(CCC(=O)NCCC(=O)O)c(C)c3cc12	inactive	–
CC1=C([N+](=O)[O-])C(c2cccc(Br)c2)C2=C(N1)c1ccccc1C2=O (stereo not given)	inconclusive: 0.92 µM [cytotoxic, full curve, poor fit]	–
Cn1cccc1Cc1nnc(SCC(=O)Nc2ccc(F)cc2)n1-c1ccc(F)cc1	inactive	–
Oc1ccc(CN2CCN(c3ccccc3)CC2)c2cccnc12	inactive	–
Cc1ccc(S(=O)(=O)n2nc(C)c(S(=O)(=O)N3CCCCC3)c2C)cc1	inconclusive: 1.3 µM [rising, full curve]	–
CCOc1ccc(NC(=O)CC2C(=O)N(c3cccc(C)c3)C(=O)N2CCC2=CCCCC2)cc1 (stereo not given)	inconclusive: 1.84 µM [cytotoxic, full curve, poor fit]	–
CCn1cc(C(=O)N2CCCC(C(=O)c3cccc(C(F)(F)F)c3)C2)cn1 (stereo not given)	inconclusive: 29.1 µM [cytotoxic, single point]	–
COc1cccc(OC)c1OCCCc1c(C)n[nH]c1C	active: 18.4 µM	–
CCOc1ccccc1NC(=O)CSc1n[nH]c(N)n1	inactive	–
O=c1ccc2ccccc2c2ccccc12	inconclusive: 18.4 µM [cytotoxic, single point]	–
Cc1cc(C)nc(SCC(=O)Nn2cnnc2)n1	inactive	–
CCCCCNC(=O)C(c1ccc(OC)cc1)n1c(=O)c(-c2ccco2)nc2ccccc21 (stereo not given)	active: 18.4 µM	–
COc1cccc(Oc2coc3cc(OC(=O)N4CCOCC4)ccc3c2=O)c1	inconclusive: 29.1 µM [cytotoxic, single point]	–
COc1cc(OC)c(NC(=O)CN(C)S(=O)(=O)c2ccc3c(c2)CCCC(=O)N3)cc1Cl	inconclusive: 18.4 µM [cytotoxic, partial curve]	–
Cc1nc(Cl)c(C(=O)NC(=O)Nc2cccc(C(F)(F)F)c2)c(C)c1[N+](=O)[O-]	inconclusive: 22.4 µM [cytotoxic, single point]	–
CCOC(=O)c1nnn(-c2nc(N(C)C)nc(N(C)C)n2)c1C	inconclusive: 8.2 µM [cytotoxic, partial curve, poor fit]	–
CN(CCc1ccccc1)c1cc2c(c3c1ccn3C)C1CCC2O1 (stereo not given)	inactive	–
O=S(=O)(Nc1ccc(O)c2ccccc12)c1cccs1	inconclusive: 23.1 µM [cytotoxic, single point]	–
O=C(CSc1nnc(-c2ccco2)n1Cc1ccccc1)NC(=O)NCc1ccco1	active: 20.6 µM	–
Cc1cccc(N2CCN(C(=O)/C=C/c3cccs3)CC2C)c1 (stereo not given)	–	inconclusive: -7.27%
O=C1C=CC(=NN=C(c2ccccc2)c2ccccc2)C=C1	inactive	–
CCCCN(CC)C(=O)C1CCC(CNS(=O)(=O)c2cccc3nsnc23)CC1 (stereo not given)	inconclusive: 4.11 µM [cytotoxic, partial curve]	–

An excerpt of these results, comma-delimited.
SMILES,Potency,"activity change, negative = cytotoxicity"
CC1CCN(c2ccc(C(=O)NCc3ccco3)cc2[N+](=O)[O-])CC1,"inconclusive: 8.2 µM [cytotoxic, partial curve]",–
COC(=O)C1=C(C)N(Cc2ccc(C)cc2)C(=O)/C1=C\c1cc(OC)c(OC)c(OC)c1,"inconclusive: 29.1 µM [cytotoxic, single point]",–
Cc1cccc(N2CCN(C(=O)/C=C/c3cccs3)CC2C)c1 (stereo not given),–,inconclusive: -7.27%

Additional compounds:

SMILES	Potency	activity change, negative = cytotoxicity
NC(=O)C1CCN(Cc2nc(-c3cccs3)no2)CC1	inconclusive: 18.4 µM [rising, partial curve]	–
Fc1ccccc1N1CCN(c2ncnc3onc(-c4cccc(Cl)c4)c23)CC1	inconclusive: 32.6 µM [cytotoxic, single point]	–
Cc1c(NC(=O)Nc2ccc(Cl)c(C(F)(F)F)c2)c(=O)n(-c2ccccc2)n1C	inactive	–
CCC(C)N(C(=O)Cn1nnc(-c2ccc(Cl)cc2)n1)C1CCS(=O)(=O)C1 (stereo not given)	inactive	–
c1ccc(CCCCc2ccncc2)cc1	inconclusive: 4.11 µM [rising, partial curve]	–
CCOC(=O)CSc1nc2c(sc(=S)n2Cc2ccco2)c(=O)n1-c1ccccc1	inactive	–
COc1ccc(-c2cc(C(=O)Nc3cccnc3Cl)no2)cc1	inconclusive: 23.1 µM [rising, partial curve]	–
COc1ccc(C(=O)NN)cc1COc1ccc(Br)cc1	inconclusive: 29.1 µM [cytotoxic, single point]	–
c1ccc(COc2ccccc2CNCc2cccnc2)cc1	inconclusive: 29.1 µM [cytotoxic, single point]	–
Cc1ccc(S(=O)(=O)N2CCN(CC(O)c3ccccc3)CC2)cc1 (stereo not given)	inconclusive: 16.4 µM [cytotoxic, single point]	–
COc1ccc(Cn2c(C)nc3c(c2=O)c2nc4ccccc4nc2n3Cc2ccco2)cc1	inconclusive: 8.2 µM [cytotoxic, partial curve, poor fit]	–
O=c1oc(-c2ccccc2)nc2sc3c(c12)CCCC3	inconclusive: 18.4 µM [cytotoxic, single point]	–
Cc1cc2c(c(=O)n1Cc1ccccn1)C(c1ccc3c(c1)OCO3)C(C#N)=C(N)O2 (stereo not given)	inconclusive: 29.1 µM [rising, single point]	–
COC(=O)C1=C(C)N(Cc2ccccc2)C(=O)N[C@H]1c1ccco1	inconclusive: 0.103 µM [rising, full curve]	–
Cc1cc(C)n(-c2nc(C)nc3c2cnn3-c2ccccc2)n1	inconclusive: 8.2 µM [cytotoxic, partial curve]	–
COC(=O)C1=C(NC(=O)c2ccc(C)c(C)c2)CCS1	inconclusive: 9.2 µM [cytotoxic, partial curve]	–
O=C(Nc1cccc(Br)c1)c1ccc(CSc2ccccc2)cc1	inconclusive: 23.1 µM [cytotoxic, single point]	–
COC(=O)[C@]1(C)N[C@H](c2ccc(-c3cccc(Cl)c3)cc2)[C@@H]2C(=O)N(C)C(=O)[C@@H]21	inconclusive: 16.4 µM [rising, single point]	–
NS(=O)(=O)c1ccc(NC(=O)CN2CCN(c3ccc(F)cc3)CC2)cc1	inactive	–
Cc1ccc2nc(-c3cccc(Cl)c3)c(Cc3cccc(F)c3)n2c1	inconclusive: 18.4 µM [cytotoxic, single point]	–
COc1ccc(CN(C)C(=O)CNC(=O)c2sc3ccccc3c2Cl)c(OC)c1OC	active: 5.8 µM	–
COc1ccc(N(CC(=O)Nc2cc(C)ccc2C)S(=O)(=O)c2c(C)nn(C)c2C)cc1	inactive	–

Source: PubChem BioAssay AID1347076 (National Center for Advancing Translational Sciences (NCATS), 2019)
